{
  "source": "patent US5747452A",
  "about": "“Method of modulating tumor cell migration using fibronectin type III peptides” (La Jolla Cancer Research Foundation, priority 1995, dated 1998)",
  "tested_on": "fibronectin",
  "experiment": "Protein-protein binding assay: 125I-III1-E to coated fibronectin",
  "design": "species or system human",
  "data": [
    {"substance": "III1 -E: Sequence ID No. 12; recombinant protein, residues 600 to 655 of human fibronectin, from pGEX-2T", "values": [
      {"measurement": "number of high affinity sites in fibronectin in comparison to fibronectin as ligand", "result": 1000, "unit": "fold more"},
      {"measurement": "number of low affinity sites in fibronectin in comparison to fibronectin as ligand", "result": "ten-fold more"},
      {"measurement": "number of high affinity binding sites", "setting": "Scatchard analysis", "result": "1-2 binding sites per fibronectin dimer"},
      {"measurement": "number of low affinity binding sites", "setting": "Scatchard analysis", "result": "approximately 10 binding sites per fibronectin dimer"}
    ]}
  ]
}
